What was measured:
[1] = target: T1, human OAT3 (Homo sapiens, UniProt Q8TCC7); test: cell-based
T1 sequence (Q8TCC7 1-542): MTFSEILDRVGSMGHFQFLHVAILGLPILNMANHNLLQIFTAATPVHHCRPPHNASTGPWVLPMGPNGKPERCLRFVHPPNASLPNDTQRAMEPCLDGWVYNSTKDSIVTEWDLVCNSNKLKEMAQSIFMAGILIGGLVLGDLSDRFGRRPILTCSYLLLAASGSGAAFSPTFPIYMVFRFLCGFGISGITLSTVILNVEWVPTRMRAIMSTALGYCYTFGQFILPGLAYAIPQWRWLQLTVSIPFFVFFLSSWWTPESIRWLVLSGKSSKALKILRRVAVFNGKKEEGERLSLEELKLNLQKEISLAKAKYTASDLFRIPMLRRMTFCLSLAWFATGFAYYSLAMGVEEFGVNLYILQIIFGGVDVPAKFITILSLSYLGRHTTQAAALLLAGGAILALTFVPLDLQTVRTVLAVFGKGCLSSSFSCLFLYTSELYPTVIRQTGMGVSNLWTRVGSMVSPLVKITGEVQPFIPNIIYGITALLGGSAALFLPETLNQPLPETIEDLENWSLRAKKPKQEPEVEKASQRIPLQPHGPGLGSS

[2] = target: T2, human OAT1 (Homo sapiens, UniProt Q4U2R8); test: Inhibition of OAT1-mediated 6-carboxyfluorescein
T2 sequence (Q4U2R8 1-563): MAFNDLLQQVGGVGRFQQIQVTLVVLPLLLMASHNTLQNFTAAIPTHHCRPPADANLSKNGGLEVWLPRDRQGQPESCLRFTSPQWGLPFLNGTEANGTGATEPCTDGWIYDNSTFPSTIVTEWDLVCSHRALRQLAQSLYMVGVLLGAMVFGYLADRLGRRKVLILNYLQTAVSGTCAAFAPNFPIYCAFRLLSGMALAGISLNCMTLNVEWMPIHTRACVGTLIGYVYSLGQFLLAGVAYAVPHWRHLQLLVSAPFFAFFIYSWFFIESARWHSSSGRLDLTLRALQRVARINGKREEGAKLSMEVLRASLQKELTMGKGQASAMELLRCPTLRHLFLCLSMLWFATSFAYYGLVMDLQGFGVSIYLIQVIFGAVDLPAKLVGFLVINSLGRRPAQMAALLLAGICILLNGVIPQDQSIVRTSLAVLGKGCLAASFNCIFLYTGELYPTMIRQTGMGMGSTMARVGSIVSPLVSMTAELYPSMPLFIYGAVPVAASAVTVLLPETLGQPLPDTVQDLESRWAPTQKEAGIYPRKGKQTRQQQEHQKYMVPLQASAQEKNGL

Ki [1]: 4.75 µM
Ki [2]: 3.23 µM
SMILES: COc1ccc2cc([C@H](C)C(=O)O)ccc2c1 [Naproxen, reference compound]

From article PMC8177813 (Journal of pharmaceutical sciences, 2020)
